Test: Compaction via extrusion into granules
Details: compaction behaviour on extrusion

COP(=O)(NC(C)=O)SC (centres unmarked) [Ex. 4, acephate]
extrusion (listed as Milled): consistent with high

COP(=O)(NC(C)=O)SC (centres unmarked) [Ex. 3, acephate, reference compound]
extrusion (listed as Unmilled): inconsistent compaction

From patent publication US20050163814A1, “Granulated phosphoroamido(di) thioates” (priority 2002, published 2005)
